Here are results for one substance from publication PMC7977452.

Chains of the proteins cited; added tags and fusions are not shown. Residues count along the entry.
UniProt Q8VDD5, residues 1-838: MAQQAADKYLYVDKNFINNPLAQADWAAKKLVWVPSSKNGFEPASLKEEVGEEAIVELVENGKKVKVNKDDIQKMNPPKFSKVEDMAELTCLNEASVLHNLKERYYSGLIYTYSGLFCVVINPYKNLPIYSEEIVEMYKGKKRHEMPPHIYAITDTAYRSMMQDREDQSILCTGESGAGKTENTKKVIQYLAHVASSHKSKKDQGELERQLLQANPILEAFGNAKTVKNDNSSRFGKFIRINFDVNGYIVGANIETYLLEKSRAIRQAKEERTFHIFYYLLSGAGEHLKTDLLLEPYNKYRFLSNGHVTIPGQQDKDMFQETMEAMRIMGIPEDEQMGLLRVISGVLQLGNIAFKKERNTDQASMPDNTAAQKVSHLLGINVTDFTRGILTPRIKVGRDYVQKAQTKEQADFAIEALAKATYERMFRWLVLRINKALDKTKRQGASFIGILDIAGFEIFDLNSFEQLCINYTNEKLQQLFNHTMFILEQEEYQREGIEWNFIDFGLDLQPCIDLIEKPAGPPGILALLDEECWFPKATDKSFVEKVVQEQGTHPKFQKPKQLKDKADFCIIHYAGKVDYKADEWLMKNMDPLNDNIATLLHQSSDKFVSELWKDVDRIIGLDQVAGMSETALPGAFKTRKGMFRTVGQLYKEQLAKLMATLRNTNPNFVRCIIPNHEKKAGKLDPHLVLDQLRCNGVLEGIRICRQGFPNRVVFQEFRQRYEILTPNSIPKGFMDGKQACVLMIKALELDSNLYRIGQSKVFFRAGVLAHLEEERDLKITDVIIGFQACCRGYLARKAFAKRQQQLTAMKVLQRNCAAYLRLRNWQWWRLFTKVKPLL

No constants are given. Whether binding was seen depends on the method and setting. Some entries that bind do so weakly or less than the wild type.

The target in this assay is GST-Trio-GEFD1 (amino acids 1203-1813) (mouse) (UniProt Q0KL02). Kind of assay: pull-down; purified His-Myh9 mixed with purified GST or GST-Trio, 4 °C overnight with rotation, washed 3 times with PBS; western blot with anti-His and anti-GST; both purified. (In western blotting, separated proteins are transferred to a membrane and probed.)

For the substance “His-Myh9 head domain (amino acids 1-838) (from UniProt Q8VDD5 1-838) (domain or fragment)”, the binding result is given as “binds”.
